Test results taken from the supplement of paper PMC12823440, “Inhibitors supercharge kinase turnover through native proteolytic circuits” (Nature, 2025).
Structures can show the parent of a compound that is named as a salt. The list shows a part of the results. The calls rarely recur for the same compound in another form.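 Kinases, fused to nanoluciferase, were expressed in K562 cells; luminescence was measured every 4 h from 2 to 18 h as percent of control (DMSO = 100%, positive control = 0%). A time point is decreased if signal falls significantly (2 sigma). Hits were called by the authors by a rule that is not shown; the count of time points alone does not decide it.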

The chains behind the UniProt entries cited, without tags or fusion partners.
UniProt P29317, whole entry: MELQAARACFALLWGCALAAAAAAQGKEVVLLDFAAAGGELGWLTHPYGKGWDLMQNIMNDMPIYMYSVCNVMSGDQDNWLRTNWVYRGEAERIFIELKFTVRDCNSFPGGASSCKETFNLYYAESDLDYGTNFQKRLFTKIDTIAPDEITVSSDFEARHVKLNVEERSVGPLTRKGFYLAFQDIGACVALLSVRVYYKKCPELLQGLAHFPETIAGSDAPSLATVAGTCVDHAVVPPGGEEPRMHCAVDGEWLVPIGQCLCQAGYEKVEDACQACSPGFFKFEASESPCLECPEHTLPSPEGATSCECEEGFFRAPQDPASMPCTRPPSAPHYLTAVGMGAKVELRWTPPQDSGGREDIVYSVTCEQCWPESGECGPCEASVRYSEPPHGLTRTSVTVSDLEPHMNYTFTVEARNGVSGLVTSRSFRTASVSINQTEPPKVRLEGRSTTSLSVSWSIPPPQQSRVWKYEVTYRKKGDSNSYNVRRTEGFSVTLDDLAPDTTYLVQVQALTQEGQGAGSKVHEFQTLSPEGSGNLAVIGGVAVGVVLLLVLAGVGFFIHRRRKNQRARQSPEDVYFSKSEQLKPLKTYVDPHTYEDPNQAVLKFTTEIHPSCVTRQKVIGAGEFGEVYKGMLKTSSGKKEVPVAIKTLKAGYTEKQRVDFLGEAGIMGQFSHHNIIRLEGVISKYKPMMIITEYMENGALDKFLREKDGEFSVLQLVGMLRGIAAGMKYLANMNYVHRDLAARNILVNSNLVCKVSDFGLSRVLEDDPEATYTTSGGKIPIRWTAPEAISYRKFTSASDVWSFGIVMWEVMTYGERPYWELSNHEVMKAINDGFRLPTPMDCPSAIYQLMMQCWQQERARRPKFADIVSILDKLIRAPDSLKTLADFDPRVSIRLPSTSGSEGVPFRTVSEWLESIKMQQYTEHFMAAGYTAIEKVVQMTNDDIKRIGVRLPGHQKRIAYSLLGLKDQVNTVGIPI
UniProt P21860, whole entry: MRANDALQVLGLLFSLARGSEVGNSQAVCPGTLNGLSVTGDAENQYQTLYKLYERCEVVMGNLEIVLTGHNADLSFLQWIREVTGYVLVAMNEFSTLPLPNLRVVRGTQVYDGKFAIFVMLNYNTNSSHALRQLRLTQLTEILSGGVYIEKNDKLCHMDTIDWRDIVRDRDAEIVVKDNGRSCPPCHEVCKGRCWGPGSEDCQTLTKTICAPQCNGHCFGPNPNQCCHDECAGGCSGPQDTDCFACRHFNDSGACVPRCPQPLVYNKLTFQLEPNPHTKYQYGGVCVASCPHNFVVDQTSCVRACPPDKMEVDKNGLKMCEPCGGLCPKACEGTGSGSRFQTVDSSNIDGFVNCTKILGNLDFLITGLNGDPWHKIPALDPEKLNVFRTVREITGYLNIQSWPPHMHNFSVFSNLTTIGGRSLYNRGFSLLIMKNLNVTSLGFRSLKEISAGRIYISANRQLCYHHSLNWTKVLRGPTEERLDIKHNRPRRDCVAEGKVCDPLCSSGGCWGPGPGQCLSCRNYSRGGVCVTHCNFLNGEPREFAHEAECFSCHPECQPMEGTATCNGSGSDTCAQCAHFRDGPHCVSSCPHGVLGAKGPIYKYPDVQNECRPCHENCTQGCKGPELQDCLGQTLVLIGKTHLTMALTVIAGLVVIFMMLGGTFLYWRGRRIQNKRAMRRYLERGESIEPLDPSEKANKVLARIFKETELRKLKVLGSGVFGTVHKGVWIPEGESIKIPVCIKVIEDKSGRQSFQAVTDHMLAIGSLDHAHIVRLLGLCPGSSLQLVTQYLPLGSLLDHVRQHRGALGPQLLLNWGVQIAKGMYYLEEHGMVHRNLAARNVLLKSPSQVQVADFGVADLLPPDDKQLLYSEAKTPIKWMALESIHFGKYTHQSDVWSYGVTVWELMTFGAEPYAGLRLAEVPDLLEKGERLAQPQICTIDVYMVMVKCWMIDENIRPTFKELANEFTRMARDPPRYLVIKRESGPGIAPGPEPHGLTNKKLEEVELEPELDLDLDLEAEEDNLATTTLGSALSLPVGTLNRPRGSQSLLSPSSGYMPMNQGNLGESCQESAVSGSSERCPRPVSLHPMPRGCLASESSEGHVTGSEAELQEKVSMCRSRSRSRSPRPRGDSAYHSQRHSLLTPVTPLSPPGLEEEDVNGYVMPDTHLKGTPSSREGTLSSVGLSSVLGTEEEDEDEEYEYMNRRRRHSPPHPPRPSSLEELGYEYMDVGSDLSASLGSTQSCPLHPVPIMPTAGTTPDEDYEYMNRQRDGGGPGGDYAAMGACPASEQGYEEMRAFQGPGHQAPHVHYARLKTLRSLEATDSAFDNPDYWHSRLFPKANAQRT
UniProt Q15303, whole entry R711C: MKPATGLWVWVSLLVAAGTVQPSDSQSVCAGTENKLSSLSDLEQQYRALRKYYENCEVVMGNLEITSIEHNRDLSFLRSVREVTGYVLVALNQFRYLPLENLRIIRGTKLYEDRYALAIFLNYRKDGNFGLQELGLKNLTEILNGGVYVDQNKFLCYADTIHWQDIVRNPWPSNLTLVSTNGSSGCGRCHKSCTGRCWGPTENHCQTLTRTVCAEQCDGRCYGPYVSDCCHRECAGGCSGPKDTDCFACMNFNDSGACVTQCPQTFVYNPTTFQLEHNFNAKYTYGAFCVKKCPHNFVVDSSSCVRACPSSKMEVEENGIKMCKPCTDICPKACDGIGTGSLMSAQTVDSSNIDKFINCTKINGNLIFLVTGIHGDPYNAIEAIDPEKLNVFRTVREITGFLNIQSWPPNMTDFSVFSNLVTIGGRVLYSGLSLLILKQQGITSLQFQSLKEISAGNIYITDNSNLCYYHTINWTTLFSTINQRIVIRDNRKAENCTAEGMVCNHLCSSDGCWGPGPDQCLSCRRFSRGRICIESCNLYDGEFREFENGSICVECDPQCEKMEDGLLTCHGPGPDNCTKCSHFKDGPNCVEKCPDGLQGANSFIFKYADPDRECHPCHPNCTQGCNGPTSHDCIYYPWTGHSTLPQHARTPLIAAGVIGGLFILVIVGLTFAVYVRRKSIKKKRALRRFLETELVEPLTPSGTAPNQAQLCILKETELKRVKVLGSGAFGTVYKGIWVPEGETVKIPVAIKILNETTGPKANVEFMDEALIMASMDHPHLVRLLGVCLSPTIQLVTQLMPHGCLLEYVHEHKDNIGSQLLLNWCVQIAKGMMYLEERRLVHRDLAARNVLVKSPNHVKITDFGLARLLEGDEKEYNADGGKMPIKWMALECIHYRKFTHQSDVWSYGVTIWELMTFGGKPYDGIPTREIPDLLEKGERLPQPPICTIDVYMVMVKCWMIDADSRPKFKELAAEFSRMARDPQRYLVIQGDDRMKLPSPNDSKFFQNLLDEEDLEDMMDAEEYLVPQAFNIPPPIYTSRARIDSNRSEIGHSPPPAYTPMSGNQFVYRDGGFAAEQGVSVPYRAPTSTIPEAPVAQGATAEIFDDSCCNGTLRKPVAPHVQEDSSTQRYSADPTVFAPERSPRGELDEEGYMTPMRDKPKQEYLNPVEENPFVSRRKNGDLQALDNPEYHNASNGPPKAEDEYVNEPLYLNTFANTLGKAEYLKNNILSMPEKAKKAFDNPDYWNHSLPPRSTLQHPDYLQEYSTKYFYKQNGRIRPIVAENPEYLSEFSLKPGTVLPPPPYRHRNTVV

Experiments:
Assay in all cases: kinase-Nluc reporter destabilization hit call (1 = scored as downregulated) (binary); higher = compound decreases kinase abundance
Details in all cases: K562, 2-18 h
[1] = target: EGFR (UniProt P00533)
[2] = target: EGFR_G719S (UniProt P00533)
[3] = target: EGFR_G719S_T790M (UniProt P00533)
[4] = target: EGFR_L718V (UniProt P00533)
[5] = target: EGFR_L858R (UniProt P00533)
[6] = target: EGFR_L861Q (UniProt P00533)
[7] = target: EGFR_T790M (UniProt P00533)
[8] = target: EPHA2 (UniProt P29317)
[9] = target: ERBB3 (UniProt P21860)
[10] = target: ERBB4_R711C (clone: ERBB4_mut) (UniProt Q15303)

Measured: kinase-Nluc reporter destabilization hit call

CCS(=O)(=O)N1CC(CC#N)(n2cc(-c3ncnc4[nH]ccc34)cn2)C1 [Baricitinib (phosphate)]
inactive: [1]; 10 µM 0 | [2]; 10 µM 0 | [3]; 10 µM 0 | [4]; 10 µM 0 | [5]; 10 µM 0 | [6]; 10 µM 0 | [7]; 10 µM 0 | [8]; 10 µM 0 | [9]; 10 µM 0 | [10]; 10 µM 0

C=CC(=O)Nc1cc2c(Nc3ccc(F)c(Cl)c3)ncnc2cc1C#CC(C)(C)N1CCN(C)CC1
inactive: [1]; 2.5 µM 0 | [2]; 2.5 µM 0 | [3]; 2.5 µM 0 | [4]; 2.5 µM 0 | [5]; 2.5 µM 0 | [6]; 2.5 µM 0 | [7]; 2.5 µM 0 | [8]; 2.5 µM 0 | [9]; 2.5 µM 0 | [10]; 2.5 µM 0

C=CC(=O)Nc1cc(Nc2nccc(-c3cn(C4CC4)c4ccccc34)n2)c(OC)cc1N(C)CCN(C)C [Almonertinib]
inactive: [1]; 2.5 µM 0 | [2]; 2.5 µM 0 | [3]; 2.5 µM 0 | [4]; 2.5 µM 0 | [5]; 2.5 µM 0 | [6]; 2.5 µM 0 | [7]; 2.5 µM 0 | [8]; 2.5 µM 0 | [9]; 2.5 µM 0 | [10]; 2.5 µM 0

Cc1ccc(NC(=O)c2ccc(CN3CCN(C)CC3)cc2)cc1Nc1nc(-c2cccnc2)cs1 [Masitinib]
inactive: [1]; 2.5 µM 0 | [2]; 2.5 µM 0 | [3]; 2.5 µM 0 | [4]; 2.5 µM 0 | [5]; 2.5 µM 0 | [6]; 2.5 µM 0 | [7]; 2.5 µM 0 | [8]; 2.5 µM 0 | [9]; 2.5 µM 0 | [10]; 2.5 µM 0

CNc1ncc2cc(-c3ccc(-c4cccc(C)n4)cc3Cl)c(=O)n(C[C@H]3OC[C@H](N)CO3)c2n1 [G-5555 (hydrochloride)]
inactive: [1]; 10 µM 0 | [2]; 10 µM 0 | [3]; 10 µM 0 | [4]; 10 µM 0 | [5]; 10 µM 0 | [6]; 10 µM 0 | [7]; 10 µM 0 | [8]; 10 µM 0 | [9]; 10 µM 0 | [10]; 10 µM 0

COc1cc2nccc(Nc3cc(OC)c(OC)c(OC)c3)c2cc1OC [GAK inhibitor 49 (hydrochloride)]
inactive: [1]; 10 µM 0 | [2]; 10 µM 0 | [3]; 10 µM 0 | [4]; 10 µM 0 | [5]; 10 µM 0 | [6]; 10 µM 0 | [7]; 10 µM 0 | [8]; 10 µM 0 | [9]; 10 µM 0 | [10]; 10 µM 0

Cc1cc(Nc2ncc(Cl)c(Nc3ccccc3S(=O)(=O)C(C)C)n2)c(OC(C)C)cc1C1CCNCC1 [Ceritinib]
inactive: [1]; 2.5 µM 0 | [2]; 2.5 µM 0 | [3]; 2.5 µM 0 | [4]; 2.5 µM 0 | [5]; 2.5 µM 0 | [6]; 2.5 µM 0 | [7]; 2.5 µM 0 | [8]; 2.5 µM 0 | [9]; 2.5 µM 0 | [10]; 2.5 µM 0

Cn1ncc(Cl)c1-c1cc(C(=O)N[C@H](CN)Cc2cccc(F)c2)sc1Cl [Afuresertib (hydrochloride)]
inactive: [1]; 10 µM 0 | [2]; 10 µM 0 | [3]; 10 µM 0 | [4]; 10 µM 0 | [5]; 10 µM 0 | [6]; 10 µM 0 | [7]; 10 µM 0 | [8]; 10 µM 0 | [9]; 10 µM 0 | [10]; 10 µM 0

COc1ccc(S(=O)(=O)N(CCO)c2ccccc2CN(C)C/C=C/c2ccc(Cl)cc2)cc1 [KN-93 (hydrochloride)]
inactive: [1]; 2.5 µM 0 | [2]; 2.5 µM 0 | [3]; 2.5 µM 0 | [4]; 2.5 µM 0 | [5]; 2.5 µM 0 | [6]; 2.5 µM 0 | [7]; 2.5 µM 0 | [8]; 2.5 µM 0 | [9]; 2.5 µM 0 | [10]; 2.5 µM 0

Taken from above (2 entries):
Cn1ncc(Cl)c1-c1cc(C(=O)N[C@H](CN)Cc2cccc(F)c2)sc1Cl [Afuresertib (hydrochloride)]
inactive: [1]; 10 µM 0 | [2]; 10 µM 0 | [3]; 10 µM 0 | [4]; 10 µM 0 | [5]; 10 µM 0 | [6]; 10 µM 0 | [7]; 10 µM 0 | [8]; 10 µM 0 | [9]; 10 µM 0 | [10]; 10 µM 0

COc1ccc(S(=O)(=O)N(CCO)c2ccccc2CN(C)C/C=C/c2ccc(Cl)cc2)cc1 [KN-93 (hydrochloride)]
inactive: [1]; 2.5 µM 0 | [2]; 2.5 µM 0 | [3]; 2.5 µM 0 | [4]; 2.5 µM 0 | [5]; 2.5 µM 0 | [6]; 2.5 µM 0 | [7]; 2.5 µM 0 | [8]; 2.5 µM 0 | [9]; 2.5 µM 0 | [10]; 2.5 µM 0

Further entries.

Nc1ncnc2c1c(-c1ccc(Oc3ccccc3)cc1)nn2[C@@H]1CCCNC1 [IBT6A (hydrochloride)]
inactive: [1]; 2.5 µM 0 | [2]; 2.5 µM 0 | [3]; 2.5 µM 0 | [4]; 2.5 µM 0 | [5]; 2.5 µM 0 | [6]; 2.5 µM 0 | [7]; 2.5 µM 0 | [8]; 2.5 µM 0 | [9]; 2.5 µM 0 | [10]; 2.5 µM 0

CNC(=O)c1cc(Oc2ccc(NC(=O)Nc3ccc(Cl)c(C(F)(F)F)c3)c(F)c2)ccn1 [Regorafenib (monohydrate)]
inactive: [1]; 2.5 µM 0 | [2]; 2.5 µM 0 | [3]; 2.5 µM 0 | [4]; 2.5 µM 0 | [5]; 2.5 µM 0 | [6]; 2.5 µM 0 | [7]; 2.5 µM 0 | [8]; 2.5 µM 0 | [9]; 2.5 µM 0 | [10]; 2.5 µM 0

C[C@@H](N)c1ccc(C(=O)Nc2ccnc3[nH]ccc23)cc1
inactive: [1]; 10 µM 0 | [2]; 10 µM 0 | [3]; 10 µM 0 | [4]; 10 µM 0 | [5]; 10 µM 0 | [6]; 10 µM 0 | [7]; 10 µM 0 | [8]; 10 µM 0 | [9]; 10 µM 0 | [10]; 10 µM 0

Oc1cccc(-c2nc(N3CCOCC3)c3oc4ncccc4c3n2)c1
inactive: [1]; 10 µM 0 | [2]; 10 µM 0 | [3]; 10 µM 0 | [4]; 10 µM 0 | [5]; 10 µM 0 | [6]; 10 µM 0 | [7]; 10 µM 0 | [8]; 10 µM 0 | [9]; 10 µM 0 | [10]; 10 µM 0

CC(=O)Nc1cccc(-n2c(=O)n(C3CC3)c(=O)c3c(Nc4ccc(I)cc4F)n(C)c(=O)c(C)c32)c1 [Trametinib (DMSO solvate)]
inactive: [1]; 10 µM 0 | [2]; 10 µM 0 | [3]; 10 µM 0 | [4]; 10 µM 0 | [5]; 10 µM 0 | [6]; 10 µM 0 | [7]; 10 µM 0 | [8]; 10 µM 0 | [9]; 10 µM 0 | [10]; 10 µM 0

COc1cc(/C=C/C(=O)O)ccc1O [Ferulic acid]
inactive: [1]; 10 µM 0 | [2]; 10 µM 0 | [3]; 10 µM 0 | [4]; 10 µM 0 | [5]; 10 µM 0 | [6]; 10 µM 0 | [7]; 10 µM 0 | [8]; 10 µM 0 | [9]; 10 µM 0 | [10]; 10 µM 0

COc1ccc2c(c1)C(c1ccc(F)cc1)=C(CN1CCCC1)CO2 [AX-024 hydrochloride]
inactive: [1]; 10 µM 0 | [2]; 10 µM 0 | [3]; 10 µM 0 | [4]; 10 µM 0 | [5]; 10 µM 0 | [6]; 10 µM 0 | [7]; 10 µM 0 | [8]; 10 µM 0 | [9]; 10 µM 0 | [10]; 10 µM 0

Oc1cccc(-c2nc(N3CCOCC3)c3oc4ncccc4c3n2)c1 [PI-103 (Hydrochloride)]
inactive: [1]; 2.5 µM 0 | [2]; 2.5 µM 0 | [3]; 2.5 µM 0 | [4]; 2.5 µM 0 | [5]; 2.5 µM 0 | [6]; 2.5 µM 0 | [7]; 2.5 µM 0 | [8]; 2.5 µM 0 | [9]; 2.5 µM 0 | [10]; 2.5 µM 0

Cn1cc(-c2cnc3ccc4ccc(CS(=O)(=O)NCc5ccccn5)cc4c(=O)c3c2)cn1
inactive: [1]; 10 µM 0 | [2]; 10 µM 0 | [3]; 10 µM 0 | [4]; 10 µM 0 | [5]; 10 µM 0 | [6]; 10 µM 0 | [7]; 10 µM 0 | [8]; 10 µM 0 | [9]; 10 µM 0 | [10]; 10 µM 0

CC(C)Nc1cc(-c2c[nH]c(C(=O)N[C@H](CO)c3cccc(Cl)c3)c2)c(Cl)cn1 [Ulixertinib]
inactive: [1]; 10 µM 0 | [2]; 10 µM 0 | [3]; 10 µM 0 | [4]; 10 µM 0 | [5]; 10 µM 0 | [6]; 10 µM 0 | [7]; 10 µM 0 | [8]; 10 µM 0 | [9]; 10 µM 0 | [10]; 10 µM 0

CCCC(=O)Nc1ncnc2c1ncn2[C@@H]1O[C@@H]2COP(=O)(O)O[C@H]2[C@H]1OC(=O)CCC [Bucladesine (calcium)]
inactive: [1]; 10 µM 0 | [2]; 10 µM 0 | [3]; 10 µM 0 | [4]; 10 µM 0 | [5]; 10 µM 0 | [6]; 10 µM 0 | [7]; 10 µM 0 | [8]; 10 µM 0 | [9]; 10 µM 0 | [10]; 10 µM 0

Cc1nc2ccc(-n3c(-c4nonc4N)nc4cnccc43)cc2[nH]1
inactive: [1]; 10 µM 0 | [2]; 10 µM 0 | [3]; 10 µM 0 | [4]; 10 µM 0 | [5]; 10 µM 0 | [6]; 10 µM 0 | [7]; 10 µM 0 | [8]; 10 µM 0 | [9]; 10 µM 0 | [10]; 10 µM 0

CCS(=O)(=O)N1CC(CC#N)(n2cc(-c3ncnc4[nH]ccc34)cn2)C1 [Baricitinib]
inactive: [1]; 10 µM 0 | [2]; 10 µM 0 | [3]; 10 µM 0 | [4]; 10 µM 0 | [5]; 10 µM 0 | [6]; 10 µM 0 | [7]; 10 µM 0 | [8]; 10 µM 0 | [9]; 10 µM 0 | [10]; 10 µM 0

COc1cc2nccc(Nc3cc(OC)c(OC)c(OC)c3)c2cc1OC [GAK inhibitor 49]
inactive: [1]; 10 µM 0 | [2]; 10 µM 0 | [3]; 10 µM 0 | [4]; 10 µM 0 | [5]; 10 µM 0 | [6]; 10 µM 0 | [7]; 10 µM 0 | [8]; 10 µM 0 | [9]; 10 µM 0 | [10]; 10 µM 0

COC(=O)[C@H](CC(C)C)NC(=O)c1ccc(NC[C@@H](N)CS)cc1-c1cccc2ccccc12 [GGTI298 (Trifluoroacetate)]
inactive: [1]; 10 µM 0 | [2]; 10 µM 0 | [3]; 10 µM 0 | [4]; 10 µM 0 | [5]; 10 µM 0 | [6]; 10 µM 0 | [7]; 10 µM 0 | [8]; 10 µM 0 | [9]; 10 µM 0 | [10]; 10 µM 0

CC(C)Oc1ccc(-c2nn([C@@H](C)c3oc4ccc(F)cc4c(=O)c3-c3cccc(F)c3)c3ncnc(N)c23)cc1F [Umbralisib]
inactive: [1]; 2.5 µM 0 | [2]; 2.5 µM 0 | [3]; 2.5 µM 0 | [4]; 2.5 µM 0 | [5]; 2.5 µM 0 | [6]; 2.5 µM 0 | [7]; 2.5 µM 0 | [8]; 2.5 µM 0 | [9]; 2.5 µM 0 | [10]; 2.5 µM 0

CN1CCCN(C(=O)c2cccc(-c3ccc(/C=C4/C(=O)Nc5ccc(Cl)cc54)o3)c2)CC1 [CX-6258 (hydrochloride)]
inactive: [1]; 2.5 µM 0 | [2]; 2.5 µM 0 | [3]; 2.5 µM 0 | [4]; 2.5 µM 0 | [5]; 2.5 µM 0 | [6]; 2.5 µM 0 | [7]; 2.5 µM 0 | [8]; 2.5 µM 0 | [9]; 2.5 µM 0 | [10]; 2.5 µM 0

N#CCC1(n2cc(-c3ncnc4[nH]ccc34)cn2)CN(C2CCN(C(=O)c3ccnc(C(F)(F)F)c3F)CC2)C1 [Itacitinib adipate]
inactive: [1]; 10 µM 0 | [2]; 10 µM 0 | [3]; 10 µM 0 | [4]; 10 µM 0 | [5]; 10 µM 0 | [6]; 10 µM 0 | [7]; 10 µM 0 | [8]; 10 µM 0 | [9]; 10 µM 0 | [10]; 10 µM 0

c1cc(-c2cnn3cc(-c4ccc(OCCN5CCCCC5)cc4)cnc23)ccn1 [Dorsomorphin]
inactive: [1]; 2.5 µM 0 | [2]; 2.5 µM 0 | [3]; 2.5 µM 0 | [4]; 2.5 µM 0 | [5]; 2.5 µM 0 | [6]; 2.5 µM 0 | [7]; 2.5 µM 0 | [8]; 2.5 µM 0 | [9]; 2.5 µM 0 | [10]; 2.5 µM 0

COc1ccc(S(=O)(=O)N(CCO)c2ccccc2CN(C)C/C=C/c2ccc(Cl)cc2)cc1 [KN-93 (phosphate)]
inactive: [1]; 2.5 µM 0 | [2]; 2.5 µM 0 | [3]; 2.5 µM 0 | [4]; 2.5 µM 0 | [5]; 2.5 µM 0 | [6]; 2.5 µM 0 | [7]; 2.5 µM 0 | [8]; 2.5 µM 0 | [9]; 2.5 µM 0 | [10]; 2.5 µM 0
